No constants are given. Whether binding was seen depends on the method and setting. Some entries that bind do so weakly or less than the wild type.
Target: T1, MTase(R124) (UniProt P10484)
T1 sequence (looked up) 1: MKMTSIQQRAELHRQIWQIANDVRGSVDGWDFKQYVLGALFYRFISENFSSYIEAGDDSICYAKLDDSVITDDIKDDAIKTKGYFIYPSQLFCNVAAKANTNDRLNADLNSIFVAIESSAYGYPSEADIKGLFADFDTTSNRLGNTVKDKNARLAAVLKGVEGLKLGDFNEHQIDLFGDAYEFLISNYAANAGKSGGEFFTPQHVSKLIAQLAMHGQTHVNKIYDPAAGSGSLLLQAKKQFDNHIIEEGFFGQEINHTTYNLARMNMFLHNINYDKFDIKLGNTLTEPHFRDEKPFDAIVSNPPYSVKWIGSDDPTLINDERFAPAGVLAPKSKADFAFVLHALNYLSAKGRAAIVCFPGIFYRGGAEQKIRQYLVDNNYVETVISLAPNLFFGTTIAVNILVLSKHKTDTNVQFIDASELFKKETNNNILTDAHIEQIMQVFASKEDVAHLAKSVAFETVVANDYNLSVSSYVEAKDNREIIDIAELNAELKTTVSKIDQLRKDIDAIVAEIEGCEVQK
T1 sequence (looked up) 2: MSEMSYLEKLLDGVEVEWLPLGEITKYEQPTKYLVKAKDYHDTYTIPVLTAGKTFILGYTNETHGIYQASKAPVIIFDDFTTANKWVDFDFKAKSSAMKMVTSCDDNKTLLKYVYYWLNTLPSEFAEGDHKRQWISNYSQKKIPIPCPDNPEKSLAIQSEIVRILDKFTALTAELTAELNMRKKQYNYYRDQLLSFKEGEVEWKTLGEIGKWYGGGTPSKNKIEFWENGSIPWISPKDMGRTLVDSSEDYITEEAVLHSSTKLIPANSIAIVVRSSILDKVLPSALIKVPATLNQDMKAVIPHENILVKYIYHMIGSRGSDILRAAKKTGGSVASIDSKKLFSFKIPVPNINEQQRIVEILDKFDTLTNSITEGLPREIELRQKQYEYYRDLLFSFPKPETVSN
Test: assembly of 50 nM MTase(R124) and 40 nM HsdR(R124) on pCFD30 DNA, checked by a cleavage test on agarose gel

binding: binds
B1: HsdR(R124) (enzyme, UniProt P10486 1-1038, looked up)
chain: MTHQTHTIAESNNFIVLDKYIKAEPTGDSYQSESDLERELIQDLRNQGYEFISVKSQSAMLANVREQLQNLNGVVFNDSEWRRFTEQYLDNPSDGILDKTRKIHIDYICDFIFDDERLENIYLIDKKNLMRNKVQIIQQFEQAGSHANRYDVTILVNGLPLVQIELKKRGVAIREAFNQIHRYSKESFNSENSLFKYLQLFVISNGTDTRYFANTTKRDKNSFDFTMNWAKSDNTLIKDLKDFTATCFQKHTLLNVLVNYSVFDSSQTLLVMRPYQIAATERILWKIKSSFTAKNWSKPESGGYIWHTTGSGKTLTSFKAARLATELDFIDKVFFVVDRKDLDYQTMKEYQRFSPDSVNGSENTAGLKRNLDKDDNKIIVTTIQKLNNLMKAESDLPVYNQQVVFIFDECHRSQFGEAQKNLKKKFKRYYQFGFTGTPIFPENALGSETTASVFGRELHSYVITDAIRDEKVLKFKVDYNDVRPQFKSLETETDEKKLSAAENQQAFLHPMRIQEITQYILNNFRQKTHRTFPGSKGFNAMLAVSSVDAAKAYYATFKRLQEEAANKSATYKPLRIATIFSFAANEEQNAIGEISDETFDTSAMDSSAKEFLDAAIREYNSHFKTNFSTDSNGFQNYYRDLAQRVKNQDIDLLIVVGMFLTGFDAPTLNTLFVDKNLRYHGLMQAFSRTNRIYDATKTFGNIVTFRDLERSTIDAITLFGDKNTKNVVLEKSYTEYMEGFTDAATGEAKRGFMTVVSELEQRFPDPTSIESEKEKKDFVKLFGEYLRAENILQNYDEFATLKALQQIDLSDPVAVEKFKAEHYVDDEKFAELQTIRLPADRKIQDYRSAYNDIRDWQRREKEAEKKEKSTTDWDDVVFEVDLLKSQEINLDYILGLIFEHNRQNKGKGEMIEEVKRLIRSSLGNRAKEGLVVDFIQQTNLDDLPDKASIIDAFFTFAQREQQREAEALIKEENLNEDAAKRYIRTSLKREYATENGTELNETLPKLSPLNPQYKTKKQAVFQKIVSFIEKFKGVGGKI
